Drawing on article PMC12002053, this text covers binding for two molecules.

By UniProt entry, the sequences of proteins in these tests, tags left out. Where a name states a change or a piece, a line headed by the entry shows the natural chain unless it says otherwise. Chains listed by the source or under a name are the forms on record and can include a tag or linker.
EGFP-tagged CNBP (human CNBP CDS with an N-terminal EGFP tag), expressed in NIH/3T3 cells (P62633, form named): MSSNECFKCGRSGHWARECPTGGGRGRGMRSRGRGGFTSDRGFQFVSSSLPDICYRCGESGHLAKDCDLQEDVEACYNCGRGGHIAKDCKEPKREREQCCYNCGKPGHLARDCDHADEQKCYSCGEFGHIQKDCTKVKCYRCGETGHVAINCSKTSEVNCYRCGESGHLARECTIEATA

The target in assay [1] is EGFP-tagged CNBP (human CNBP CDS with an N-terminal EGFP tag), expressed in HEK293 cells (human) (UniProt P62633). In words: co-IP; as a1, but cleared HEK293 lysates incubated with RNaseA (50 μg/ml) and RNase If (300 μg/ml) for 30 min at RT before GFP-Trap beads.
For assay [2] the target is unchanged. Put plainly: co-IP; EGFP-CNBP captured on GFP-Trap magnetic agarose beads from cleared lysates of HEK293 cells co-expressing KIF1C-mCherry; 50mM Tris pH 7.4, 1% NP-40, 150mM NaCl, 10mM MgCl2, 10% glycerol; 1 h at 4°C; immunoblot.
For assay [3], the target named is EGFP-tagged CNBP (human CNBP CDS with an N-terminal EGFP tag), expressed in NIH/3T3 cells (human) (UniProt P62633). In words: co-IP; EGFP-CNBP captured on GFP-Trap magnetic agarose beads from lysates of transfected NIH/3T3 cells; endogenous Kif1c detected by immunoblot. In general terms: A western blot detects proteins with antibodies after separation by electrophoresis.

These are yes or no findings as the source states them, for the method shown. In cells and extracts the contact can be indirect. Some results given as binding are weak or reduced against the parent protein; the word gives no strength. For part of these data: Sequences can lack the tags named with a protein.

B1: mCherry-tagged KIF1C (human KIF1C CDS with a C-terminal mCherry tag) (protein, UniProt O43896 1-1103)
chain: MAGASVKVAVRVRPFNARETSQDAKCVVSMQGNTTSIINPKQSKDAPKSFTFDYSYWSHTSTEDPQFASQQQVYRDIGEEMLLHAFEGYNVCIFAYGQTGAGKSYTMMGRQEPGQQGIVPQLCEDLFSRVSENQSAQLSYSVEVSYMEIYCERVRDLLNPKSRGSLRVREHPILGPYVQDLSKLAVTSYADIADLMDCGNKARTVAATNMNETSSRSHAVFTIVFTQRCHDQLTGLDSEKVSKISLVDLAGSERADSSGARGMRLKEGANINKSLTTLGKVISALADMQSKKRKSDFIPYRDSVLTWLLKENLGGNSRTAMIAALSPADINYEETLSTLRYADRTKQIRCNAIINEDPNARLIRELQEEVARLRELLMAQGLSASALEGLKTEEGSVRGALPAVSSPPAPVSPSSPTTHNGELEPSFSPNTESQIGPEEAMERLQETEKIIAELNETWEEKLRKTEALRMEREALLAEMGVAVREDGGTVGVFSPKKTPHLVNLNEDPLMSECLLYHIKDGVTRVGQVDMDIKLTGQFIREQHCLFRSIPQPDGEVVVTLEPCEGAETYVNGKLVTEPLVLKSGNRIVMGKNHVFRFNHPEQARLERERGVPPPPGPPSEPVDWNFAQKELLEQQGIDIKLEMEKRLQDLENQYRKEKEEADLLLEQQRLYADSDSGDDSDKRSCEESWRLISSLREQLPPTTVQTIVKRCGLPSSGKRRAPRRVYQIPQRRRLQGKDPRWATMADLKMQAVKEICYEVALADFRHGRAEIEALAALKMRELCRTYGKPDGPGDAWRAVARDVWDTVGEEEGGGAGSGGGSEEGARGAEVEDLRAHIDKLTGILQEVKLQNSSKDRELQALRDRMLRMERVIPLAQDHEDENEEGGEVPWAPPEGSEAAEEAAPSDRMPSARPPSPPLSSWERVSRLMEEDPAFRRGRLRWLKQEQLRLQGLQGSGGRGGGLRRPPARFVPPHDCKLRFPFKSNPQHRESWPGMGSGEAPTPLQPPEEVTPHPATPARRPPSPRRSHHPRRNSLDGGGRSRGAGSAQPEPQHFQPKKHNSYPQPPQPYPAQRPPGPRYPPYTTPPRMRRQRSAPDLKESGAAV
B1: the binding entry in assay [1] and in assay [2] was “binds” throughout.

B2: endogenous Kif1c of NIH/3T3 cells (protein, UniProt O35071 1-1100)
chain: MAGASVKVAVRVRPFNARETSQDAKCVVSMQGNTTSIINPKQSKDAPKSFTFDYSYWSHTSVEDPQFASQQQVYRDIGEEMLLHAFEGYNVCIFAYGQTGAGKSYTMMGRQEPGQQGIVPQLCEDLFSRVNVNQSAQLSYSVEVSYMEIYCERVRDLLNPKSRGSLRVREHPILGPYVQDLSKLAVTSYADIADLMDCGNKARTVAATNMNETSSRSHAVFTIVFTQRSHDQLTGLDSEKVSKISLVDLAGSERADSSGARGMRLKEGANINKSLTTLGKVISALADLQSKKRKSDFIPYRDSVLTWLLKENLGGNSRTAMIAALSPADINYEETLSTLRYADRTKQIRCNAVINEDPNARLIRELQEEVARLRDLLMAQGLSASALGGLKVEEGSPGGVLPPASSPPAPASPSSPPPHNGELEPSFSPSAEPQIGPEEAMERLQETEKIIAELNETWEEKLRKTEALRMEREALLAEMGVAVREDGGTVGVFSPKKTPHLVNLNEDPLMSECLLYHIKDGVTRVGQVDVDIKLTGQFIREQHCLFRSIPQPDGEVMVTLEPCEGAETYVNGKLVTEPLVLKSGNRIVMGKNHVFRFNHPEQARLERERGVPPPPGPPSEPVDWNFAQKELLEQQGIDIKLEMEKRLQDLENQYRKEKEEADLLLEQQRLYADSDSGEDSDKRSCEESWRLISSLREQLPPTTVQNIVKRCGLPSSGKRRAPRRVYQIPQRRRLQGKDPRWATMADLKMQAVKEICYEVALADFRHGRAEIEALAALKMRELCRTYGKPEGPGDAWRAVARDVWDTVGEEEGCGGGGGGSEEGARGAEVEDLRAHIDKLTGILQEVKLQNSSKDRELQALRDRMLRMERVIPLTQDLEDDNDESGLVTWAPPEGPEAVEETVPNDHSPAVRPTSPPLSSWERVSRLMEEDPAFRRGRLRWLKQEQLRLQGLQGAGGRGGGLRRPPARFVPPHDCKLRFPFKSNPQHRESWPGMGSGEAPAPQPPEEVTVPPAPPNRRPPSPRRPHRSRRNSLDGGSRSRGGGSTQPEPQHLRPQKHNGYPQQPQPSPAQRPGPRYPPYTTPPRMRRQRSAPDLKESGAAV
B2: in assay [3], the binding result is given as “binds”.
